Record: PubChem BioAssay AID1259405 (NCATS, 2018)

Aim: 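Knock-downs that lift recombinant protein yield in hamster ovary cells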 (primary screen)
Cell system: Chinese hamster CHO-K1 ovary cells with stable secreted eGFP expression
Reagent: single siRNA against mouse genes, 0.8 pmol siRNA per well (2 µl of 400 nM stock)
Duration: 3 days
Read-out: 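Per-well intracellular GFP measured by laser scanning cytometry, plus viability from ATP luminescence, each relative to plate median of non-targeting control wells, in %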
Scale: GFP, % of control: higher = more GFP per well, higher productivity; viability (ATP), % of control: higher = more viable cells (more ATP)
Hit rule: 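a knock-down is called active if GFP reaches 120% or more of non-targeting control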
Shown is an unselected part of about 50,000 reagents. About 4,000 of them (8%) were called active. 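Mouse siRNA library applied to hamster cells; one well for each siRNA.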 The numbers tell different reagents against one gene apart. No sequences are given here.

After knock-down of Siglech (sialic acid binding Ig-like lectin H) #1 the results were GFP, % of control 86.4; viability (ATP), % of control 80.5; inactive.
Siglech (sialic acid binding Ig-like lectin H) #2 gave GFP, % of control 45.6; viability (ATP), % of control 65.9; inactive.
Siglech (sialic acid binding Ig-like lectin H) #3 gave GFP, % of control 90.8; viability (ATP), % of control 67.6; inactive.
Hbs1l (Hbs1-like (S. cerevisiae)) #1 gave GFP, % of control 138; viability (ATP), % of control 131; active.
Depletion of Hbs1l (Hbs1-like (S. cerevisiae)) #2 came out at: GFP, % of control 102; viability (ATP), % of control 67.9; inactive.
Hbs1l (Hbs1-like (S. cerevisiae)) #3 showed GFP, % of control 101; viability (ATP), % of control 80.2; inactive.
Against Gapt (Grb2-binding adaptor, transmembrane) #1, the values are GFP, % of control 76; viability (ATP), % of control 71.8; inactive.
With knock-down of Gapt (Grb2-binding adaptor, transmembrane) #2 the results were GFP, % of control 53; viability (ATP), % of control 68.7; inactive.
Gapt (Grb2-binding adaptor, transmembrane) #3 scored GFP, % of control 87.2; viability (ATP), % of control 69.8; inactive.
Actl9 (actin-like 9) #1 gave GFP, % of control 94.9; viability (ATP), % of control 73.4; inactive.
Against Actl9 (actin-like 9) #2, the entry reads GFP, % of control 86.6; viability (ATP), % of control 104; inactive.
After knock-down of Actl9 (actin-like 9) #3, the screen gave GFP, % of control 50; viability (ATP), % of control 54.6; inactive.
Cux2 (cut-like homeobox 2) #1 showed GFP, % of control 97; viability (ATP), % of control 56.6; inactive.
With knock-down of Cux2 (cut-like homeobox 2) #2, the record shows GFP, % of control 56.4; viability (ATP), % of control 62.2; inactive.
Silencing of Cux2 (cut-like homeobox 2) #3 came out at: GFP, % of control 99.3; viability (ATP), % of control 102; inactive.
Scnm1 (sodium channel modifier 1) #1 scored GFP, % of control 86.9; viability (ATP), % of control 64; inactive.
For Scnm1 (sodium channel modifier 1) #2 the deposit lists GFP, % of control 123; viability (ATP), % of control 32.3; active.
Scnm1 (sodium channel modifier 1) #3 showed GFP, % of control 95; viability (ATP), % of control 84.9; inactive.
Sh2d3c (SH2 domain containing 3C) #1 showed GFP, % of control 89.7; viability (ATP), % of control 64.4; inactive.
Sh2d3c (SH2 domain containing 3C) #2 gave GFP, % of control 68.1; viability (ATP), % of control 68.8; inactive.
Sh2d3c (SH2 domain containing 3C) #3 gave GFP, % of control 56.6; viability (ATP), % of control 85.3; inactive.
Depletion of Rel (Rel proto-oncogene, NFKB subunit) #1 came out at: GFP, % of control 103; viability (ATP), % of control 97.8; inactive.
Rel (Rel proto-oncogene, NFKB subunit) #2 scored GFP, % of control 56.7; viability (ATP), % of control 74.2; inactive.
With knock-down of Rel (Rel proto-oncogene, NFKB subunit) #3, the screen gave GFP, % of control 65.9; viability (ATP), % of control 96.5; inactive.
Tgm6 (transglutaminase 6) #1 showed GFP, % of control 126; viability (ATP), % of control 98.4; active.
Knock-down of Tgm6 (transglutaminase 6) #2 resulted in: GFP, % of control 95.3; viability (ATP), % of control 160; inactive.
With knock-down of Tgm6 (transglutaminase 6) #3 the results were GFP, % of control 126; viability (ATP), % of control 130; active.
After knock-down of Carns1 (carnosine synthase 1) #1, the screen gave GFP, % of control 55.7; viability (ATP), % of control 67.9; inactive.
With knock-down of Carns1 (carnosine synthase 1) #2 the results were GFP, % of control 67.3; viability (ATP), % of control 105; inactive.
For Carns1 (carnosine synthase 1) #3, the values are GFP, % of control 66; viability (ATP), % of control 56.2; inactive.
Depletion of Gatad2a (GATA zinc finger domain containing 2A) #1 gave: GFP, % of control 103; viability (ATP), % of control 113; inactive.
Gatad2a (GATA zinc finger domain containing 2A) #2 scored GFP, % of control 52.5; viability (ATP), % of control 43.9; inactive.
Depletion of Gatad2a (GATA zinc finger domain containing 2A) #3 gave: GFP, % of control 69.5; viability (ATP), % of control 72.1; inactive.
After knock-down of Schip1 (schwannomin interacting protein 1) #1, the screen gave GFP, % of control 95.2; viability (ATP), % of control 87.1; inactive.
After knock-down of Schip1 (schwannomin interacting protein 1) #2 the results were GFP, % of control 67.5; viability (ATP), % of control 68.3; inactive.
After knock-down of Schip1 (schwannomin interacting protein 1) #3, the screen gave GFP, % of control 87.4; viability (ATP), % of control 74.3; inactive.
Trim2 (tripartite motif-containing 2) #1 showed GFP, % of control 121; viability (ATP), % of control 57.3; active.
For Trim2 (tripartite motif-containing 2) #2 the deposit lists GFP, % of control 124; viability (ATP), % of control 106; active.
Trim2 (tripartite motif-containing 2) #3 showed GFP, % of control 108; viability (ATP), % of control 119; inactive.
After knock-down of Pgap4 (post-GPI attachment to proteins GalNAc transferase 4) #1, the record shows GFP, % of control 61.7; viability (ATP), % of control 72.6; inactive.
After knock-down of Pgap4 (post-GPI attachment to proteins GalNAc transferase 4) #2, the screen gave GFP, % of control 78.7; viability (ATP), % of control 78.4; inactive.
For Pgap4 (post-GPI attachment to proteins GalNAc transferase 4) #3, the values are GFP, % of control 74.4; viability (ATP), % of control 58.7; inactive.
Prss3b (serine protease 3B) #1 gave GFP, % of control 76.5; viability (ATP), % of control 64; inactive.
Prss3b (serine protease 3B) #2 scored GFP, % of control 87; viability (ATP), % of control 69.9; inactive.
After knock-down of Prss3b (serine protease 3B) #3, the screen gave GFP, % of control 63.7; viability (ATP), % of control 58.5; inactive.
After knock-down of Ndufaf5 (NADH:ubiquinone oxidoreductase complex assembly factor 5) #1 the results were GFP, % of control 110; viability (ATP), % of control 124; inactive.
Ndufaf5 (NADH:ubiquinone oxidoreductase complex assembly factor 5) #2 scored GFP, % of control 46.7; viability (ATP), % of control 38.8; inactive.
For Ndufaf5 (NADH:ubiquinone oxidoreductase complex assembly factor 5) #3, the values are GFP, % of control 58.4; viability (ATP), % of control 60.1; inactive.
With knock-down of Gpha2 (glycoprotein hormone alpha 2) #1, the screen gave GFP, % of control 56.1; viability (ATP), % of control 63.4; inactive.
Knock-down of Gpha2 (glycoprotein hormone alpha 2) #2 resulted in: GFP, % of control 75.3; viability (ATP), % of control 73.6; inactive.
With knock-down of Gpha2 (glycoprotein hormone alpha 2) #3, the record shows GFP, % of control 54.3; viability (ATP), % of control 33.8; inactive.
Vmn2r10 (vomeronasal 2, receptor 10) #1 showed GFP, % of control 58.1; viability (ATP), % of control 56.8; inactive.
Vmn2r10 (vomeronasal 2, receptor 10) #2 scored GFP, % of control 68.1; viability (ATP), % of control 69.4; inactive.
Vmn2r10 (vomeronasal 2, receptor 10) #3 gave GFP, % of control 41.5; viability (ATP), % of control 66.3; inactive.

Part of the list above, reformatted:
| Gene | siRNA no. | GFP, % of control | viability (ATP), % of control | activity call |
| --- | --- | --- | --- | --- |
| Rel (Rel proto-oncogene, NFKB subunit) | 2 | 56.7 | 74.2 | inactive |
| Rel (Rel proto-oncogene, NFKB subunit) | 3 | 65.9 | 96.5 | inactive |
| Tgm6 (transglutaminase 6) | 1 | 126 | 98.4 | active |
